The values that follow come from PubChem BioAssay AID651595 (National Center for Advancing Translational Sciences (NCATS), 2012).

The whole screen tested about 1,100 compounds, of which fewer than 10 were called active. About 6% were inconclusive and are not listed. The call rests on the fitted dose curve; in most records, active means well fitted cell-killing curve with a large enough effect; inconclusive means small, poorly fitted or top-dose-only effect; inactive means flat fitted curve, though single readings scatter. This is one part of the list.

The nature of the experiment: qHTS of Nrf2 Activators: Hit Validation in Cytotox Assay.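 Further: compound exposure lasted 24 hours before the ATP readout; 0% is about no effect.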 The note with it: Cell viability counter-screen for Nrf2 activator hits; series mostly up to 46.1 µM; activity change, negative = cytotoxicity: at the top concentration. The gist of the method: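 AREc32_fluc cells plated overnight, then treated at 7 concentrations for 24 h at 37 °C. Viability from intracellular ATP by CellTiter-Glo luminescence after 30 min at room temperature; cytotoxic compounds flagged active.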
Regarding `COc1ccc([N+](=O)[O-])cc1C1NN=C(c2ccccc2O)S1` (stereo not given), the “activity change, negative = cytotoxicity” value was inactive: -3.67%. The value for `O=C(CSc1nccc(-c2cccs2)n1)Nc1cccc(Cl)c1` was inactive: 7.52%; that for `Cn1c(NCc2ccc3occc3c2)nc2cc(-c3cccc(C(F)(F)F)c3)sc2c1=O` was inactive: -17.7%. The value for `Brc1cc(Br)c2nc(-c3cccs3)ccc2c1` was inactive: 5.71%; that for `CCOC(=O)c1cnc(-c2ccccc2)nc1-c1ccccc1` was inactive: 9.35%; that for `COc1ccc2oc3ccccc3c(=O)c2c1` was inactive: -0.325%.

For `CCNc1nc(NCC)nc(N(C)/N=C/c2ccco2)n1`, the “activity change, negative = cytotoxicity” value is inactive: 5.02%.

Regarding `O=C(CCN1C(=O)/C(=C/c2ccccc2)SC1=S)N1CCCCCC1`, the “activity change, negative = cytotoxicity” value was inactive: 1.54%.

`O=C(N/N=C/c1ccc(-c2cccc([N+](=O)[O-])c2)o1)c1cccs1`: the “activity change, negative = cytotoxicity” value is inactive: -2.3%. On to `O=c1[nH]c(/C(Cl)=C/c2cc(Cl)ccc2O)nc2cc(Cl)ccc12`, for which the “activity change, negative = cytotoxicity” value was inactive: -1.06%. As for `O=C(CSc1nc2cc(Cl)ccc2s1)c1ccco1`, the figure is inactive: 3.79%. For `CCn1c(=O)c([N+](=O)[O-])c(NCc2ccco2)c2ccccc21`, the “activity change, negative = cytotoxicity” value is inactive: 2.57%. For the compound `Cc1ccc(C(=O)OCc2c(C)noc2C)cc1NC(=O)c1ccco1`, the “activity change, negative = cytotoxicity” value is inactive: -1.28%. Consider `c1ccc(-c2noc(-c3cccnc3)n2)cc1`, for which the “activity change, negative = cytotoxicity” value is inactive: 0.858%.

`Cc1cc(C)n2nc(/C(C#N)=C/c3ccccn3)c(C#N)c2n1`: the “activity change, negative = cytotoxicity” value was inactive: -18.6%. Consider `O=C(CCCN1C(=O)/C(=C\c2cccc(Br)c2)SC1=S)Nc1cccnc1`, for which the “activity change, negative = cytotoxicity” value is inactive: 3.74%. Take `O=c1nc2c(-c3ccccc3F)n[nH]n2c2ccccc12`: the “activity change, negative = cytotoxicity” value is inactive: -3.43%.

As to `COc1cc(C=C2Cc3ccccc3C2=O)cc(OC)c1OC`, the “activity change, negative = cytotoxicity” value was inactive: -0.755%. As for `CCOC(=O)N1CCc2c(sc3c2C(=O)NC(c2ccccc2)N3)C1` (stereo not given), the “activity change, negative = cytotoxicity” value is inactive: -11.2%. Regarding `O=C1S/C(=C\C=C\c2ccco2)C(=O)N1c1ccc(O)cc1`, the “activity change, negative = cytotoxicity” value was inactive: -15.4%.

In the case of `Cc1csc2c(=O)sc(NC(=O)c3ccc(F)cc3Cl)nc12`, the “activity change, negative = cytotoxicity” value is inactive: 4.3%. As for `Cc1cc(C)cc(NC(=O)Nc2cccs2)c1`, the figure is inactive: 0.303%; as for `CCOC(=O)N/N=C\C=C\c1ccco1`, inactive: 2.28%; as for `Cc1sc2c(c1C)C(=O)NC(c1ccccc1F)N2` (stereo not given), inactive: 5.03%. The value for `O=C(Nc1ccc(Cl)c(S(=O)(=O)N2CCOCC2)c1)c1cccs1` was inactive: -20.6%; that for `O=C(N/N=C/c1ccsc1)c1ccc2ccccc2n1` was inactive: 5.15%; that for `O=C1C(=Cc2ccccc2[N+](=O)[O-])Cc2ccccc21` was inactive: -13.3%.

`CC(=O)N1CCc2c(sc(NC(=O)CCS(=O)(=O)c3ccccc3)c2C#N)C1`: the “activity change, negative = cytotoxicity” value is inactive: -0.748%. As for `CC(=O)Nc1cc(-c2ccsc2)cn2c(-c3ccc(F)cc3)cnc12`, the “activity change, negative = cytotoxicity” value was inactive: -5.25%. Take `C=CCc1cccc(C=Nc2cc(Br)ccc2O)c1O`: the “activity change, negative = cytotoxicity” value is inactive: -22%. The value for `Cc1cccc(NC(=O)Nc2ccc(Br)cc2)n1` was inactive: 2.75%; that for `O=c1cc(-c2ccccc2Cl)oc2c(Br)ccc(O)c12` was inactive: -1.03%. Take `Fc1ccccc1-c1nc(-c2ccc(Cl)cc2)no1`: the “activity change, negative = cytotoxicity” value is inactive: -0.963%.

Regarding `c1ccc(-c2nc3c4ccccc4ccn3c2Cc2ccsc2)cc1`, the “activity change, negative = cytotoxicity” value is inactive: -15.8%. `Clc1ccc(Br)cc1-c1nc(-c2ccncc2)no1`: the “activity change, negative = cytotoxicity” value was inactive: 2.28%.

With `CC(C)(C)c1csc(NC(=O)CCS(=O)(=O)c2ccc(F)cc2)n1`, the “activity change, negative = cytotoxicity” value is inactive: 9.8%. The value for `O=C(Nc1nnc(-c2ccccc2F)s1)C1CCCO1` (stereo not given) was inactive: -0.232%. In the case of `Cc1cc(NC(=O)CN2CCC(O)CC2)nc2c1c(=O)oc1ccccc12`, the “activity change, negative = cytotoxicity” value was inactive: 3.07%.

Take `O=C(Nc1nnc(-c2cccs2)s1)C1CC1`: the “activity change, negative = cytotoxicity” value was inactive: -3.55%. The value for `Cc1sc2ncnc(Sc3nnnn3-c3ccccc3)c2c1C` was inactive: -9.81%; that for `O=C(N/N=C/C=C/c1ccco1)c1cccc([N+](=O)[O-])c1` was inactive: 6.02%. As for `Cc1nc(NC(=O)/C=C/c2ccccc2)n[nH]1`, the figure is inactive: 5.25%; as for `Cc1ccsc1/C=N/N=C1\C(=O)Nc2ccccc21`, inactive: -12.4%. On to `CCCCC1C(=O)N(c2ccccc2)N(c2ccc(O)cc2)C1=O` (stereo not given), for which the “activity change, negative = cytotoxicity” value is inactive: 5.09%. Consider `O=C(COc1cccnc1[N+](=O)[O-])Nc1cccc2ccccc12`, for which the “activity change, negative = cytotoxicity” value is inactive: -1.49%. The value for `CC(=O)c1sc2nc(-c3cccs3)cc(C(F)(F)F)c2c1N` was inactive: -2.42%; that for `O=[N+]([O-])c1ccc(Cl)cc1C=NNc1ccccn1` was inactive: -2.4%; that for `Cc1c(Cl)cccc1NC(=S)NC(=O)c1ccccc1` was inactive: -23.4%. The value for `Clc1ccc(/C=N/Nc2nnc(Cl)c3ccccc23)cc1` was inactive: -26.5%; that for `O=C(CSc1nccc(-c2cccs2)n1)Nc1cccc(Cl)c1Cl` was inactive: -0.107%; that for `Oc1ccccc1Nc1nc2ccccc2n2nnnc12` was inactive: -2.36%. For the compound `CSC1=NC(C)(C)C=C(/C=C/c2ccc(Cl)cc2)N1`, the “activity change, negative = cytotoxicity” value was inactive: -20.3%. The value for `Nc1c(Cl)cc(N=Nc2ccccc2)cc1Cl` was inactive: -1.01%; that for `COc1ccc(N(CCCN2C(=O)c3cccc4cccc(c34)C2=O)C(=O)c2cccc(OC)c2)cc1` was inactive: -1.97%. The value for `O=C(N/N=C/c1ccc(Br)s1)c1cccs1` was inactive: -28.6%. As for `O=c1c2ccccc2oc2cc(Br)ccc12`, the figure is inactive: -0.78%; as for `COc1ccc(C)c2sc(NC(=O)CCS(=O)(=O)c3ccccc3)nc12`, inactive: 8.79%; as for `Cc1c(CN(C)C)c2c(n1C)C(=O)c1ccc(Br)cc1-2`, inactive: 10.2%.

In the case of `COc1cccc(NC(=O)c2cc(Cl)nnc2Cl)c1`, the “activity change, negative = cytotoxicity” value is inactive: -1.13%. The value for `c1ccc(N2CC3COc4ccccc4C3=N2)cc1` (stereo not given) was inactive: 4.77%.
